# Measurements reported in PubChem BioAssay AID652259 (Drosophila RNAi Screening Center, 2013)
# Assay: 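Identify new Wingless signalling regulators in fly cells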 (primary screen)
# Cells: Drosophila clone 8 imaginal disc epithelial cells
# Reagents: long dsRNA against Drosophila genes
# Challenge: pathway stimulated by co-transfected Wingless expression plasmid
# Measurement: 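Dual luciferase reads per well after Wingless plasmid stimulation: reporter firefly light and Renilla control light; activity is firefly divided by Renilla, a ratio not deposited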
# Direction: firefly reporter light: higher = more Wg reporter light, before normalisation; Renilla control light: higher = more transfected or surviving cells
# Hit rule: 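a knock-down is a candidate when at least two out of four statistical tests show it departing from its plate mean; one test alone signals a weak candidate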
# Meaning of the calls: active = candidate regulator (raises or lowers reporter); inactive = not a candidate
# The deposit covers about 22,000 reagents; shown is an unselected part of those with a known target gene and a result. Of all reagents, 233 (1.1%) were called active. 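Light values are raw, unnormalised plate reads; the ratio scores behind the reporter calls were not deposited.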 Unmarked entries are inactive. Names joined by + are all predicted targets of the reagent. The record does not give: the amount of reagent, the time to read-out, the dose of the treatment.
gene,amplicon,"reporter change call, replicate 1","firefly reporter light, replicate 1","firefly reporter light, replicate 2","Renilla control light, replicate 1","Renilla control light, replicate 2"
CG18473,DRSC16381,,14202,,3322,
Ktl (Kctd12-like),DRSC14270,,2880,5596,1287,1616
Sfp38D (Seminal fluid protein 38D),DRSC01810,,18210,,10595,
tadr (torn and diminished rhabdomeres),DRSC03177,,11840,,3280,
Atf-2 + veg (retired record),DRSC04130,,12445,,4294,
Atf-2 + veg (retired record),DRSC04413,,6236,,982,
CG31704,DRSC22118,,4.65e5,4.31e5,1.72e5,2.13e5
CG30270,DRSC22890,,5.81e5,4.83e5,2.29e5,1.38e5
ken (ken and barbie),DRSC04696,,5580,,999,
ct (cut),DRSC18757,,14246,,7520,
CG13116,DRSC02214,,4045,11132,1547,4995
CG13116,DRSC21945,,2.35e5,3.54e5,1.24e5,1.70e5
ppk27 (pickpocket 27),DRSC08168,,7880,,3477,
ppk27 (pickpocket 27),DRSC22211,,6.73e5,6.78e5,2.74e5,2.78e5
OstDelta (Oligosaccharide transferase Delta subunit),DRSC06980,,10490,,5044,
CG6142,DRSC15976,,24105,,14950,
CG7252,DRSC10789,,8485,,3812,
CG7252,DRSC21492,,4.44e5,5.40e5,1.35e5,1.41e5
Cpr72Ec (Cuticular protein 72Ec),DRSC10449,,5590,,2172,
DppIII (Dipeptidyl aminopeptidase III),DRSC16241,,17885,,5408,
CG42553,DRSC08356,,5772,,2329,
Acox57D-p (acyl-Coenzyme A oxidase at 57D proximal),DRSC04560,,10828,,3341,
CG9822,DRSC04568,,2784,8258,1160,2599
EAChm (Enhancer of Acetyltransferase Chameau),DRSC10010,,5042,,1936,
gish (gilgamesh),DRSC16154,,2727,6348,1414,2131
Pcd (pterin-4a-carbinolamine dehydratase),DRSC16785,,7920,,2948,
Ddc (Dopa decarboxylase),DRSC03314,,2232,8074,778,3058
CG9988,DRSC16587,,7488,,1872,
Culd (CUB and LDLa domain),DRSC10262,,6599,,2146,
CG30389,DRSC04077,,10620,,1834,
CG30389,DRSC04452,,2244,6903,903,2633
CG10211,DRSC02027,,2993,6515,805,2982
inc (insomniac),DRSC17954,,22456,,14407,
inc (insomniac),DRSC18512,,4104,9463,1956,3514
CG4554,DRSC04473,,4539,8.22e5,1272,4.33e5
Pos (Poseidon),DRSC15415,,20524,,12246,
Coop (Corepressor of Pangolin),DRSC06604,,11721,,4026,
CG7011,DRSC09347,,3073,,1446,
CG7031,DRSC16178,Wg reporter activity raised (active),25335,,4121,
CR33283 (pseudo),DRSC22918,,5.20e5,5.59e5,2.06e5,2.48e5
CG5080,DRSC00677,,12615,,5146,
Ephrin,DRSC17165,,16528,,11360,
CG33296,DRSC00998,,14016,,6388,

Part of the list above, reformatted:
EAChm (Enhancer of Acetyltransferase Chameau) [DRSC10010]
- firefly reporter light, replicate 1: 5042
- Renilla control light, replicate 1: 1936

gish (gilgamesh) [DRSC16154]
- firefly reporter light, replicate 1: 2727
- firefly reporter light, replicate 2: 6348
- Renilla control light, replicate 1: 1414
- Renilla control light, replicate 2: 2131

Pcd (pterin-4a-carbinolamine dehydratase) [DRSC16785]
- firefly reporter light, replicate 1: 7920
- Renilla control light, replicate 1: 2948

Ddc (Dopa decarboxylase) [DRSC03314]
- firefly reporter light, replicate 1: 2232
- firefly reporter light, replicate 2: 8074
- Renilla control light, replicate 1: 778
- Renilla control light, replicate 2: 3058

CG9988 [DRSC16587]
- firefly reporter light, replicate 1: 7488
- Renilla control light, replicate 1: 1872

Culd (CUB and LDLa domain) [DRSC10262]
- firefly reporter light, replicate 1: 6599
- Renilla control light, replicate 1: 2146

The list goes on.
gene,amplicon,"reporter change call, replicate 1","firefly reporter light, replicate 1","firefly reporter light, replicate 2","Renilla control light, replicate 1","Renilla control light, replicate 2"
PolD3 (DNA polymerase delta subunit 3),DRSC01961,,8256,,3673,
hoka,DRSC08313,,1255,6480,1526,3300
Hsp23 (Heat shock protein 23),DRSC11188,,4480,,1813,
"AspRS-m (Aspartyl-tRNA synthetase, mitochondrial)",DRSC02646,,1424,6315,804,3370
Kdsr (3-ketodihydrosphingosine reductase),DRSC14245,,4173,,1625,
CG42354 + CG42353,DRSC20172,Wg reporter activity raised (active),3472,9689,401,1349
CG12448,DRSC01967,,3141,7681,896,2845
Galphas (G protein alpha subunit s),DRSC04616,,10666,,4448,
PLCXD,DRSC02427,,2100,4130,1031,1957
Tsp42En (Tetraspanin 42En),DRSC06185,,3974,7372,1187,3304
"betaNACtes5 (Nascent-associated complex beta-subunit-like, testis 5)",DRSC19100,,3276,,1105,
Slip1 (SLo interacting protein 1),DRSC17146,,1384,4295,887,1376
Cip4 (Cdc42-interacting protein 4),DRSC08091,,4248,,1916,
Cip4 (Cdc42-interacting protein 4),DRSC08469,,3864,,1894,
Cip4 (Cdc42-interacting protein 4),DRSC21740,,7.38e5,7.84e5,3.41e5,3.29e5
Atg6 (Autophagy-related 6),DRSC15798,,2429,5341,1173,1861
Ir7a (Ionotropic receptor 7a),DRSC17866,,21335,,10141,
Shab (Shaker cognate b),DRSC08013,,2092,,1666,
Shab (Shaker cognate b),DRSC08643,,4201,,2144,
Shab (Shaker cognate b),DRSC08699,,13248,,4916,
CG3337,DRSC15478,,4074,,1125,
COX5BL (Cytochrome c oxidase subunit 5B-like),DRSC02123,,2829,8738,981,3363
Ir51b (Ionotropic receptor 51b),DRSC05540,,19335,,16004,
Obp83cd (Odorant-binding protein 83cd),DRSC12267,,16108,,3605,
Khc (Kinesin heavy chain),DRSC07448,,19446,,5495,
CG14327,DRSC14806,,18456,,5267,
Amacr (Alpha-methylacyl-CoA racemase),DRSC03198,,9874,,2609,
Obp83g (Odorant-binding protein 83g),DRSC12269,,13720,,3409,
CG3557,DRSC00614,,12560,,4747,
CG45263,DRSC12682,,3074,,1819,
CG45263,DRSC14357,,18885,,2901,
CG45263,DRSC14360,,12365,,3217,
CG45263,DRSC14361,,17084,,3447,
CG45263,DRSC14363,,9915,,3248,
